# Source: the supplement of paper PMC7666118
# Sequences of proteins named here, by UniProt entry; tags and fusion partners are left off. A change or cut given only in a name is not applied to a line headed by its entry.
# UniProt O75323: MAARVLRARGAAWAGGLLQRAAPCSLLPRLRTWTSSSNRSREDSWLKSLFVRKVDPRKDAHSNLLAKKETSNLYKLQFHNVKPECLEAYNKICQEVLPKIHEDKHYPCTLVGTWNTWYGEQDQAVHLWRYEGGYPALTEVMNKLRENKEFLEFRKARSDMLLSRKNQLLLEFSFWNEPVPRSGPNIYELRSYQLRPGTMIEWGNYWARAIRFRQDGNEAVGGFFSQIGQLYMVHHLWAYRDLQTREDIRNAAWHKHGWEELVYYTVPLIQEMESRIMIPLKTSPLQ
# UniProt Q53EP0: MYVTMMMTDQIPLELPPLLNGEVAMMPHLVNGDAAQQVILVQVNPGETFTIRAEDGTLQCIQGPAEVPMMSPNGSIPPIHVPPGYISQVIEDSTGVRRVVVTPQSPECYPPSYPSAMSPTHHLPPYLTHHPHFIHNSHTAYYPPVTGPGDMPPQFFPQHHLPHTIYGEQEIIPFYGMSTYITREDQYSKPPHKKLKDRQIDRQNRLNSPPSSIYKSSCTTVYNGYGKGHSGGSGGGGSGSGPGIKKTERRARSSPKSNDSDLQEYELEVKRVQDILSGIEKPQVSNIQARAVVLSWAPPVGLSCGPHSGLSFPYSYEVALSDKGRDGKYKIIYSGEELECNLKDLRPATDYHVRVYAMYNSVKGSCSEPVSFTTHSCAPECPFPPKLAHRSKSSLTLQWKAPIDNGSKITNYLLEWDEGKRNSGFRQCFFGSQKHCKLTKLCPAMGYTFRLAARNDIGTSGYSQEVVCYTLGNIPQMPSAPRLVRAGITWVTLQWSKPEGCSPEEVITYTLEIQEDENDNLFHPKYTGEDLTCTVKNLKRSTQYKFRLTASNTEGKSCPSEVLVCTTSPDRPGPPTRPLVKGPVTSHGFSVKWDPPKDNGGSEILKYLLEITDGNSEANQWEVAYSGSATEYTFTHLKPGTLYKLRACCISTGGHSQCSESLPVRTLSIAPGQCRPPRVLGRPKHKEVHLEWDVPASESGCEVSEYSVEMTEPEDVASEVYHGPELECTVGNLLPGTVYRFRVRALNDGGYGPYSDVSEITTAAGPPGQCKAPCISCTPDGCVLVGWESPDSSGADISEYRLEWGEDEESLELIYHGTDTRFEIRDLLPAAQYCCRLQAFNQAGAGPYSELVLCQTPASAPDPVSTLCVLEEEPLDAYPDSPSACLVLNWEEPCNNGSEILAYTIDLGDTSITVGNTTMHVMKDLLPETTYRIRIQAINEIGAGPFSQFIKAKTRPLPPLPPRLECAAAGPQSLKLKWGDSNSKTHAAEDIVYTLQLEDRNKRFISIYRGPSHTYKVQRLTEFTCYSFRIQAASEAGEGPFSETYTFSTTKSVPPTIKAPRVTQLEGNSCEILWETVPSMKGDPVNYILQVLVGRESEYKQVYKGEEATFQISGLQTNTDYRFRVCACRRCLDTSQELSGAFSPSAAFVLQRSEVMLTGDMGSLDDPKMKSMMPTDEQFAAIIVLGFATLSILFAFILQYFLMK
# UniProt Q92896: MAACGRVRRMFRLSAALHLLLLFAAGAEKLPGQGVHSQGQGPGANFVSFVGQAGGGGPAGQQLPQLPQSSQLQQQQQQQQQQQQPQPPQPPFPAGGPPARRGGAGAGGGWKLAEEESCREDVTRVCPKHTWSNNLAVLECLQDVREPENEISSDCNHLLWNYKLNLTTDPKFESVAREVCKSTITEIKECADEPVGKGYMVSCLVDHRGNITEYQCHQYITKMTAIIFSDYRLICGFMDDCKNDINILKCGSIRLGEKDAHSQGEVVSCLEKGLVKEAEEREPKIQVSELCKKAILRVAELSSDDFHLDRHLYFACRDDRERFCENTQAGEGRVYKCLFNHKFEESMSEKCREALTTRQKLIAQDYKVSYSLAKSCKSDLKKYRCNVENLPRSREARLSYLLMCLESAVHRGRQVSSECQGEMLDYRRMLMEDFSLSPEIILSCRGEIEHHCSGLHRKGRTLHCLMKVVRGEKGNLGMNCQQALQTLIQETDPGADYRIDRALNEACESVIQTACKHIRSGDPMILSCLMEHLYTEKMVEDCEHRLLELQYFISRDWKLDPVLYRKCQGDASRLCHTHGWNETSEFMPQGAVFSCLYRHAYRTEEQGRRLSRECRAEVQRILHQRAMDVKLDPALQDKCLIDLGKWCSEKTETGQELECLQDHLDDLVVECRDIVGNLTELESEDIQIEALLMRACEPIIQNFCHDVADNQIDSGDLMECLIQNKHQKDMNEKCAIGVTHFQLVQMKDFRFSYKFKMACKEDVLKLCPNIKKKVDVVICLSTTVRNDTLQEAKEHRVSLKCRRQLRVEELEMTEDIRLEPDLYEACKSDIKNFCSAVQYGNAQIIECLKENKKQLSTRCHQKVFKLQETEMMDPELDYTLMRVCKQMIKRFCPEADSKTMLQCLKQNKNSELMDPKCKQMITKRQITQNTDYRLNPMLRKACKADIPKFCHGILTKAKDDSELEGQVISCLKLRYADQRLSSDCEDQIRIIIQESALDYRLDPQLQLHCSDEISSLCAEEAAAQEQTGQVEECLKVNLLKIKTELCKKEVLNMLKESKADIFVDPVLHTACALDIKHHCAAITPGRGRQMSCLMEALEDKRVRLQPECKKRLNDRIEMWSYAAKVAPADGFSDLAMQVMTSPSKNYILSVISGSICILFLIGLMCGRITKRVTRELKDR
# UniProt P39748, whole entry: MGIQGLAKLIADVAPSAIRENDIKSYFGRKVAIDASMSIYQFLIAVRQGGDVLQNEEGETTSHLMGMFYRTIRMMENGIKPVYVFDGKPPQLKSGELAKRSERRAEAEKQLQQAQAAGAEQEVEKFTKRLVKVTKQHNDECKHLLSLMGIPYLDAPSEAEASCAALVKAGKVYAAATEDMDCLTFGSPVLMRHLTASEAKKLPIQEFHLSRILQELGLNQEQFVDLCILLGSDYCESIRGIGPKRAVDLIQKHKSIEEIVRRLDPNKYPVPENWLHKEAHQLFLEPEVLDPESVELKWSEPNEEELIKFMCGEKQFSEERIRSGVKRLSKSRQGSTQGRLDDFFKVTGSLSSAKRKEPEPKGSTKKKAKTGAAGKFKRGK
# UniProt Q96PY5, whole entry: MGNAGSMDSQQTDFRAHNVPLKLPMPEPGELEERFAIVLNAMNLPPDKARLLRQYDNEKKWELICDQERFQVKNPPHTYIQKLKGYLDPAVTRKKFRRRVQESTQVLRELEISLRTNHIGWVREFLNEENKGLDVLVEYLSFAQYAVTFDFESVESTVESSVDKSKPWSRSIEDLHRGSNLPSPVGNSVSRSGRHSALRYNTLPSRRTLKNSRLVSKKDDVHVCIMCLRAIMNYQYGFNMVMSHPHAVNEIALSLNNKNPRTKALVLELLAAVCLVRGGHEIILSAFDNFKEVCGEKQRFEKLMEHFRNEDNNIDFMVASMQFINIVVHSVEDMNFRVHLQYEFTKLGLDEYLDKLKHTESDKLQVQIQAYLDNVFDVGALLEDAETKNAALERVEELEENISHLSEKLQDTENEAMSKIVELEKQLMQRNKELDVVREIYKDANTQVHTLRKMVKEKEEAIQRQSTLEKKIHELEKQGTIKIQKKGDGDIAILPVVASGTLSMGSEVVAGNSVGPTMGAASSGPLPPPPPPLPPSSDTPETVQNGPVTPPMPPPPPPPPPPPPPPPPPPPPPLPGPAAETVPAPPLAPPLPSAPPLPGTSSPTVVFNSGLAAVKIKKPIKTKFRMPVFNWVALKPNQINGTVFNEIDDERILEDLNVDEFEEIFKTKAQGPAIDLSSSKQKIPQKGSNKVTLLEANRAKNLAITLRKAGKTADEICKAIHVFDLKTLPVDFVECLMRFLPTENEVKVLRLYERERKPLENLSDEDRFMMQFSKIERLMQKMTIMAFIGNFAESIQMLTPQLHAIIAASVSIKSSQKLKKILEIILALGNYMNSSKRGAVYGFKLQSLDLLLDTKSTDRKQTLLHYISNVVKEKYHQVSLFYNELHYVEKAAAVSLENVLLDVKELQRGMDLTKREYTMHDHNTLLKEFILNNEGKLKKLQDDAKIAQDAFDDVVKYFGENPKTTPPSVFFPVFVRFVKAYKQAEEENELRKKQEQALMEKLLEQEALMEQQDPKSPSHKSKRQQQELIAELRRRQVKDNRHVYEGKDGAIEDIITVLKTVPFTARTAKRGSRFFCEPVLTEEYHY
# UniProt P35754: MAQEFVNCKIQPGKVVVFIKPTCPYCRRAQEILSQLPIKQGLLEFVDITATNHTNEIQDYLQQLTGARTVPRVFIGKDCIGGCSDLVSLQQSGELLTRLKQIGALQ
# UniProt P15104, whole entry: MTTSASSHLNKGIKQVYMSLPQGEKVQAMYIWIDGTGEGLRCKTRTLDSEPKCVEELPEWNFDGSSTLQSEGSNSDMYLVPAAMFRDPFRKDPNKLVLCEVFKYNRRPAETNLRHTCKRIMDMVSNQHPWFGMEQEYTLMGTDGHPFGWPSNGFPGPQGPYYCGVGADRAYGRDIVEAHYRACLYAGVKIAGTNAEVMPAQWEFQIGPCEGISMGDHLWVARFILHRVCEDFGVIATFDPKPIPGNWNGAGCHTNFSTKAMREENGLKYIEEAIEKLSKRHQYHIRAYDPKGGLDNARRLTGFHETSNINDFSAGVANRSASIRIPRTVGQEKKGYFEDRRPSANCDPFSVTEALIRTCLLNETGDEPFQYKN
# UniProt Q16595: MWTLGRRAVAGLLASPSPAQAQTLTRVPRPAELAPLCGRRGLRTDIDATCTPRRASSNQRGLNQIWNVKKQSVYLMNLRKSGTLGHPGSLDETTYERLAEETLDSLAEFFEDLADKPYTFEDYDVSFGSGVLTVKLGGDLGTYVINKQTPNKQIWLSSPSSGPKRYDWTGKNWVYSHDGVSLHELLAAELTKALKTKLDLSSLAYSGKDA
# UniProt Q14691: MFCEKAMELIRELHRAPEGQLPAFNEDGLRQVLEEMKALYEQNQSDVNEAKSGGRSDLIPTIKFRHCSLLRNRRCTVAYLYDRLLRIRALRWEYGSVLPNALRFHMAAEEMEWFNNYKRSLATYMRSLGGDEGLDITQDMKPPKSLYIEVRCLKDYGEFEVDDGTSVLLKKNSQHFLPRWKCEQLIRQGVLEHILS
# UniProt Q9Y3I1: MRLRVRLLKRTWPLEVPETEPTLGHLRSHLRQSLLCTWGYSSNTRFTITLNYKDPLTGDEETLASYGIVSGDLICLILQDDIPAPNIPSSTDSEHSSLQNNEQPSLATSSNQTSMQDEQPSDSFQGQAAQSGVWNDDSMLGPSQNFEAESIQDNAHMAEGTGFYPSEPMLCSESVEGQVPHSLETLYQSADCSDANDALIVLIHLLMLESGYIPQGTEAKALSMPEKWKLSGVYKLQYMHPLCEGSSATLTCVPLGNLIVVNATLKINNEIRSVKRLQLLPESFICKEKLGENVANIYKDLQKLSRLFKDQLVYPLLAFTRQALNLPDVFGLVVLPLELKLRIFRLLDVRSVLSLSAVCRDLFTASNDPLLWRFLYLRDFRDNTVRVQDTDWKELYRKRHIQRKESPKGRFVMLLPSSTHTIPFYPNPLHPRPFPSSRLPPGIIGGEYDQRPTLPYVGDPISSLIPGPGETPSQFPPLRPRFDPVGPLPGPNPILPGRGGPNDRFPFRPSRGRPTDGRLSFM
# UniProt Q96C23: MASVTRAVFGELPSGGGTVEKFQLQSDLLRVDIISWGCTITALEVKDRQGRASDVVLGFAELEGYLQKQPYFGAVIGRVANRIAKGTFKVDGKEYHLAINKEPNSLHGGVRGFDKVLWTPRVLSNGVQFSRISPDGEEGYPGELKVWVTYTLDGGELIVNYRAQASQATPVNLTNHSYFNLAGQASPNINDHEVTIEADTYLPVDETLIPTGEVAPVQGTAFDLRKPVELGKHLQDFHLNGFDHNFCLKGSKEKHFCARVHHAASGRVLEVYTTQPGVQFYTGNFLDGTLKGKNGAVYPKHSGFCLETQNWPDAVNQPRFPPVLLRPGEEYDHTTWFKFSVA
# UniProt Q8TB36: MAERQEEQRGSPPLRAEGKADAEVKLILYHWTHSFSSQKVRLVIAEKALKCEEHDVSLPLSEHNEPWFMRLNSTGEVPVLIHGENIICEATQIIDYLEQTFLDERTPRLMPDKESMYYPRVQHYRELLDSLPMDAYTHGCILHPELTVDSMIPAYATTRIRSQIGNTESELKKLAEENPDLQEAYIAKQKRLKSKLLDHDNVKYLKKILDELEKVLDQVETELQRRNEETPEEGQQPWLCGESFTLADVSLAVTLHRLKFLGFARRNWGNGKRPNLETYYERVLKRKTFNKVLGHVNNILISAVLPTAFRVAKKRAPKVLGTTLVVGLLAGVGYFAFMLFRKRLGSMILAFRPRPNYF
# Some of the results follow.
# Compound: COc1ccc(Cn2ccc3cc(C)c(C(=O)NO)cc32)cc1
# Experiment: dose-dependent thermal stabilisation call (2D-TPP, DLPTP, 10% FDR) (binary (1 = stabilised)); higher = stabilised by the compound
# Conditions: system: HL-60 intact cells; concentration range 0.04-10 µM
# Method: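 2D thermal proteome profiling in intact HL-60 cells treated with BRD-3811 (0, 0.04, 0.29, 2, 10 uM) for 90 min at 37 C, then heated 3 min at one of 12 temperatures (42-63.9 C). Soluble protein was quantified by TMT10 MS. The value is the DLPTP call of the paper: dose-dependent thermal stabilisation over all temperatures at 10% FDR (F-test of a dose-response against a flat model); one experiment, one call per tested protein.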
row,Target,dose-dependent thermal stabilisation call
1,GBAS (UniProt O75323),inactive: 0
2,FLJ20323,inactive: 0
3,FNDC3B (UniProt Q53EP0),inactive: 0
4,FER (UniProt P16591),inactive: 0
5,GDI2 (UniProt P50395),inactive: 0
6,GLG1 (UniProt Q92896),inactive: 0
7,FEN1 (UniProt P39748),inactive: 0
8,FRG1 (UniProt Q14331),inactive: 0
9,FMNL2 (UniProt Q96PY5),inactive: 0
10,GADD45GIP1 (UniProt Q8TAE8),inactive: 0
11,GMDS (UniProt O60547),inactive: 0
12,GGA2 (UniProt Q9UJY4),inactive: 0
13,GMNN (UniProt O75496),inactive: 0
14,GLRX (UniProt P35754),inactive: 0
15,GAR1 (UniProt Q9NY12),inactive: 0
16,GMPPB (UniProt Q9Y5P6),inactive: 0
17,GGT7 (UniProt Q9UJ14),inactive: 0
18,GINS4 (UniProt Q9BRT9),inactive: 0
19,GLUL (UniProt P15104),inactive: 0
20,FXN (UniProt Q16595),inactive: 0
21,GINS1 (UniProt Q14691),inactive: 0
22,FBXO7 (UniProt Q9Y3I1),inactive: 0
23,GALM (UniProt Q96C23),inactive: 0
24,FUBP3 (UniProt Q96I24),inactive: 0
25,GDAP1 (UniProt Q8TB36),inactive: 0
26,FHIT (UniProt P49789),inactive: 0
27,GIT2 (UniProt Q14161),inactive: 0
28,FURIN (UniProt P09958),inactive: 0

# An excerpt of these results, tab-delimited.
row	Target	dose-dependent thermal stabilisation call
12	GGA2 (UniProt Q9UJY4)	inactive: 0
13	GMNN (UniProt O75496)	inactive: 0
14	GLRX (UniProt P35754)	inactive: 0
15	GAR1 (UniProt Q9NY12)	inactive: 0
16	GMPPB (UniProt Q9Y5P6)	inactive: 0
